The campaign covered roughly 580,000 compounds. About 6,100 (1.1%) were called active. The inconclusive results got no clear call from the source; some entries with a clear call stand among them for comparison. Calls follow the shape of the dose curve; as a rule, active = well fitted inhibition curve with a large enough effect; inconclusive = small, poorly fitted or top-dose-only effect, or another doubt; inactive = no such curve, though single readings can be large or run the other way. Where the call is inconclusive, the potency comes from a doubtful curve fit.
Target: Polyunsaturated fatty acid lipoxygenase ALOX12 (Homo sapiens) (UniProt P18054)
Experiment: Primary qHTS assay for inhibitors of human arachidonate 12S-lipoxygenase (ALOX12): Round 2
Conditions: purified 12hLO, xylenol orange hydroperoxide absorbance; activity change, negative = inhibition: at 108 µM (top of the series)
How it was run: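 Purified human 12hLO (150 nM final) in 25 mM Hepes, 0.01% Triton X-100, pH 7.0 was preincubated 15 min at room temperature with compound. Then 40 uM arachidonic acid was added, 30 min. Hydroperoxide was read by Fe-XO absorbance ratio 573/405 nm.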
% is scaled to controls: 0 for no effect and ±100 for the full control effect; potency is read from the fitted curve at half-maximal effect.

Amino acid sequences for entries named in this document (tags omitted).
UniProt P18054, whole entry, looked up: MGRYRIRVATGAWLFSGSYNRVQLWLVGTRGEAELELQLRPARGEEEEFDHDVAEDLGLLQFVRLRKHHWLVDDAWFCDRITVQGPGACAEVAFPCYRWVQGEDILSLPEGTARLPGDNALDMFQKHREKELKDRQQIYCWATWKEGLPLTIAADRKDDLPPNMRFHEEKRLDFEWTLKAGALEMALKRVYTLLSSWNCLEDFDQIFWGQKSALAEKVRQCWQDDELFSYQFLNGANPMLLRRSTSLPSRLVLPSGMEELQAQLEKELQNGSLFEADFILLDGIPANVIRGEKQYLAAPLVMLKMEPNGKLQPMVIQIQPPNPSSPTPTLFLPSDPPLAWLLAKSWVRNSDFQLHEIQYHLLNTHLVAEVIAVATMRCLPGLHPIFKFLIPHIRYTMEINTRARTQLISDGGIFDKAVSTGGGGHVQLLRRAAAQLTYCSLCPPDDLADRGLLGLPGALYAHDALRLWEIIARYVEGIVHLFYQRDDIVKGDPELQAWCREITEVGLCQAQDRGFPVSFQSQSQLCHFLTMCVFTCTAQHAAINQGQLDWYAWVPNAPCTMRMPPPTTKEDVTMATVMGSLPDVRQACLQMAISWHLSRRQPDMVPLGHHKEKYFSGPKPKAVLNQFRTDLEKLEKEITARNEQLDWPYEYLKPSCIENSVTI

Compound	Potency	activity change, negative = inhibition
Cc1ccccc1-c1ccc2n(c1=O)C[C@H]1C[C@@H]2CN(C(=O)NC(C)C)C1	inconclusive: 63.1 µM [inhibitor, full curve, poor fit]	
CCOC(=O)[C@]12Cc3cc(C)ccc3[C@H]1N(CCC(=O)OC)C(=O)c1cc(OC)ccc12	inconclusive: 35.5 µM [inhibitor, single point]	
COc1ccc(CN2C(=O)NC(=O)/C(=C\c3ccc(OC)c(OC)c3OC)C2=O)cc1	inconclusive: 50.1 µM [inhibitor, partial curve]	
Clc1cccc(CNCCc2ccc3c(c2)OCO3)c1	inconclusive: 14.1 µM [inhibitor, partial curve]	
COc1cc2c3cc1Oc1cc(ccc1O)C[C@@H]1c4c(cc(OC)c(O)c4Oc4ccc(cc4)C[C@H]3N(C)CC2)CCN1C	inconclusive: 39.8 µM [inhibitor, partial curve, poor fit]	
C[N+]12CCC(CC1)C(C(O)(c1cccc(Cl)c1)c1cccc(Cl)c1)C2 (stereo not drawn)	inconclusive: 112 µM [inhibitor, partial curve, poor fit]	
CCOc1ccc(-c2cc(C)[n+](CCO)c(-c3ccc(OCC)cc3)c2)cc1		inactive: 2.99%
COC(=O)C1=C(c2cccc(OC)c2OC)C[C@@H]2CC[C@H]1N2C(=O)NC1CCCCC1	inconclusive: 89.1 µM [inhibitor, single point]	
COCCC(=O)N1CCC2(CC1)C(=O)Nc1cc(Oc3cccc(N(C)C)c3)c(OC)cc12	inconclusive: 79.4 µM [inhibitor, single point]	
CCOc1ccc2c(c1)c(C(C)=O)c(C)n2Cc1ccccc1		inactive: 10.4%
O=C(O)Cn1cc(/C=C2\C(=O)NC(=O)N(c3ccc(Cl)cc3)C2=O)c2ccccc21	inconclusive: 158 µM [inhibitor, partial curve, poor fit]	
O=C(c1ccc(C(F)(F)F)cc1)C1CCCN(C2CCSCC2)C1 (stereo not drawn)	inconclusive: 100 µM [inhibitor, single point]	
Cc1ccc2c(c1)C1C[N+](C)(CC(=O)c3ccc(Cl)cc3Cl)CCC1N2C(=O)c1ccc(F)cc1 (stereo not drawn)	inconclusive: 31.6 µM [inhibitor, partial curve, poor fit]	
BrCC1C[n+]2c(SCc3ccccc3)nc3sc4c(c3c2O1)CCCC4 (stereo not drawn)	inconclusive: 28.2 µM [inhibitor, partial curve, poor fit]	
Cc1cc(C=C(C#N)C#N)ccc1N1CCCC1	inconclusive: 44.7 µM [inhibitor, partial curve, poor fit]	
Brc1ccc2[nH]cc(C=NN3CCCCCC3)c2c1	inconclusive: 89.1 µM [inhibitor, partial curve, poor fit]	
Oc1ccc(Cl)cc1CN1CCN(Cc2ccccc2)CC1	inconclusive: 112 µM [inhibitor, partial curve, poor fit]	
O=c1c2ccccc2nc(/C=C/c2ccccc2O)n1-c1ccccc1O	inconclusive: 39.8 µM [inhibitor, partial curve, poor fit]	
COc1cc2c(cc1OCc1ccccc1)NC(=O)C21CCN(CCC(C)C)CC1		inactive: 19% [at 176 µM]
N[C@@H](Cn1ccc(=O)n(Cc2ccc(C(=O)O)cc2)c1=O)C(=O)O	inconclusive: 6.31 µM [inhibitor, full curve, poor fit]	

Given in CSV form: two of the compounds above
Compound,Potency,"activity change, negative = inhibition"
Clc1cccc(CNCCc2ccc3c(c2)OCO3)c1,"inconclusive: 14.1 µM [inhibitor, partial curve]",
O=C(O)Cn1cc(/C=C2\C(=O)NC(=O)N(c3ccc(Cl)cc3)C2=O)c2ccccc21,"inconclusive: 158 µM [inhibitor, partial curve, poor fit]",

(list continues)

Compound	Potency	activity change, negative = inhibition
CN(C/C=C/Cl)C1Cc2ccccc2C1	inconclusive: 11.2 µM [inhibitor, full curve, poor fit]	
C[C@@H]1CC[C@@]2(OC1)O[C@H]1C[C@H]3[C@@H]4CC=C5C[C@@H](O[C@@H]6O[C@H](CO)[C@@H](O[C@@H]7O[C@@H](C)[C@H](O)[C@@H](O)[C@@H]7O)[C@H](O)[C@@H]6O[C@@H]6O[C@@H](C)[C@H](O)[C@@H](O)[C@@H]6O)CC[C@]5(C)[C@@H]4CC[C@]3(C)[C@@H]1[C@H]2C		inactive: 7.5%
CC(=O)OC1CCC2(C)C(CCC3C2CC(=O)C2(C)C3CC(N3CC3)C2C(C)=O)C1 (stereo not drawn)		inactive: 22.4%
FC(F)(F)c1ccc(CN2CCNCC2)cc1	inconclusive: 14.1 µM [inhibitor, full curve]	
CN(Cc1ccsc1)C(=O)CCl	inconclusive: 31.6 µM [inhibitor, full curve, poor fit]	
CCOC(=O)c1c(NC(=O)C(c2ccccc2)c2ccccc2)sc2c1C1CCN2CC1	inconclusive: 7.94 µM [inhibitor, full curve, poor fit]	
CN(Cc1ccccc1)C1CCCN(C(=O)COc2ccccc2Cl)C1 (stereo not drawn)		inactive: -0.625%
S=P(NCCNP(=S)(N1CC1)N1CC1)(N1CC1)N1CC1		inactive: -16.6%
O=C1NC(=O)N(c2cccc(F)c2)C(=O)/C1=C/c1ccc(N2CCOCC2)cc1	inconclusive: 31.6 µM [inhibitor, partial curve, poor fit]	
CCCC(CCC)C(=O)OC[N+](C)(C)CCOC(=O)C(O)(c1ccccc1)C1CCCC1 (stereo not drawn)		inactive: -8.23%
CCCCN1C(=O)/C(=C/c2ccc(N(C)C)cc2)C(=O)N(Cc2ccco2)C1=O	inconclusive: 17.8 µM [inhibitor, partial curve, poor fit]	
c1coc(CN2CCNCC2)c1	inconclusive: 44.7 µM [inhibitor, partial curve, poor fit]	
Cc1cc(/C=C2/C(=O)NC(=O)N(Cc3ccco3)C2=O)c(C)n1-c1ccccc1	inconclusive: 39.8 µM [inhibitor, partial curve, poor fit]	
Cc1nc(CN2CCNCC2)cs1	inconclusive: 112 µM [inhibitor, single point]	
COc1ccc(-n2c(O)c(C(C)=NCc3ccc4c(c3)OCO4)c(=O)[nH]c2=O)cc1	inconclusive: 112 µM [inhibitor, partial curve, poor fit]	
CC(C)(C)C(=O)N1Cc2cc(N3CCCCC3)ccc2-n2nncc2C1	inconclusive: 126 µM [inhibitor, single point]	
COc1ccc(C(=O)NC(=S)N2C[C@H]3C[C@H](C2)c2cccc(=O)n2C3)cc1	inconclusive: 5.01 µM [inhibitor, full curve, poor fit]	
COc1cc(CNCCc2ccc3c(c2)OCO3)cc(OC)c1OC	inconclusive: 2 µM [inhibitor, full curve, poor fit]	
c1ccc2c(c1)cc1ccc3cccc4ccc2c1c34		inactive: -9.48%
CC(=O)Nc1ccccc1OP1(=O)COc2ccccc2OC1	inconclusive: 6.31 µM [inhibitor, full curve, poor fit]	

Compound	Potency	activity change, negative = inhibition
COc1cc(-n2c(=S)[nH]c3ccccc3c2=O)c(Cl)cc1Cl	inconclusive: 44.7 µM [inhibitor, partial curve, poor fit]	
CCOc1ccc(CNCCc2c[nH]c3ccccc23)cc1OC	inconclusive: 89.1 µM [inhibitor, single point]	
Nc1c(C(=O)NCCN2CCOCC2)c2nc3ccccc3nc2n1Cc1ccco1		inactive: 0%
O=C(O)c1cccc2nc3ccccc3nc12	inconclusive: 39.8 µM [inhibitor, partial curve, poor fit]	
COc1ccccc1CN1CCN(C(=O)COc2ccc3ccccc3c2)CC1	inconclusive: 10 µM [inhibitor, full curve, poor fit]	
O=C1NC(=S)N(C2CC2)C(=O)/C1=C/c1ccc2c(c1)CCN2CCCCl	inconclusive: 39.8 µM [inhibitor, partial curve, poor fit]	
C[N+]1(C)[C@@H]2CC[C@H]1CC(OC(=O)C(c1ccccc1)c1ccccc1)C2 (stereo partly drawn)	inconclusive: 112 µM [inhibitor, partial curve, poor fit]	
C=CCNC(=O)NC[C@H]1C[C@@H]2CCN1C[C@@H]2c1cc(-c2ccco2)nc(C)n1	inconclusive: 28.2 µM [inhibitor, full curve]	
O=C(CN1CC=C(c2ccccc2)CC1)N(C1CCCC1)C1CCS(=O)(=O)C1 (stereo not drawn)	inconclusive: 50.1 µM [inhibitor, partial curve, poor fit]	
COC(=O)C1=C(c2cccc(C#N)c2)C[C@@H]2CC[C@H]1N2C(=O)NCc1cc(C)oc1C(F)(F)F		inactive: 2.62%
Cc1nc(-c2ccc(C(F)(F)F)cc2)cc([C@H]2CN3CC[C@H]2C[C@@H]3CNC(=O)c2ccccc2C(=O)O)n1		inactive: -6.73%
CC(=O)c1c(C)n(CC2CCCO2)c2ccc(O)cc12 (stereo not drawn)		inactive: 3.47%
Cc1cccc(C)c1N1CCN(c2c(C)cccc2C)CC1	inconclusive: 39.8 µM [inhibitor, partial curve, poor fit]	
Cc1c(N)nc([C@H](CC(N)=O)NC[C@@H](N)C(N)=O)nc1C(=O)N[C@H](C(=O)N[C@@H](C)[C@H](O)[C@@H](C)C(=O)N[C@@H](C(=O)NCCc1nc(-c2nc(C(=O)NCCC[S+](C)C)cs2)cs1)[C@@H](C)O)C(O[C@H]1O[C@H](CO)[C@H](O)[C@@H](O)[C@@H]1O[C@H]1O[C@H](CO)[C@@H](O)[C@H](OC(N)=O)[C@H]1O)c1cnc[nH]1 (stereo partly drawn)	inconclusive: 17.2 µM [inhibitor, partial curve, poor fit]	
C=CCN(C)C[C@H]1CN2CC[C@H]1C[C@@H]2CNC(=O)c1ccc(N(C)C)cc1		inactive: 62.7% [at 176 µM]
CNC(=O)c1ccc(NC(=O)COC(=O)c2cn(C)c3ccccc23)cc1	inconclusive: 141 µM [inhibitor, single point]	
C[N+](C)(C)CC#CCOC(=O)Nc1cccc(Cl)c1	inactive	
C[C@H]1CNCCN1c1ccc(N2CC[C@H](O)C2)c(C#N)c1	inconclusive: 44.7 µM [inhibitor, partial curve, poor fit]	

Single entries from above.
Entry of C=CCNC(=O)NC[C@H]1C[C@@H]2CCN1C[C@@H]2c1cc(-c2ccco2)nc(C)n1 under Potency: inconclusive: 28.2 µM [inhibitor, full curve]
Entry of CCCC(CCC)C(=O)OC[N+](C)(C)CCOC(=O)C(O)(c1ccccc1)C1CCCC1 (stereo not drawn) under activity change, negative = inhibition: inactive: -8.23%

Reference: PubChem BioAssay AID1671190 (National Center for Advancing Translational Sciences (NCATS), 2021)
